Test results as given in publication PMC7528018.
For some assays here: A weaker result is weaker than the reference pair of the same experiment. For some assays here: For at least one entry, the source does not settle the construct or the ends of the probe. For some assays here: At least one verdict rests on a figure or table, not on a statement of the authors.

Chains of the proteins cited; added tags and fusions are not shown. A line that says so, or that is headed by a name, gives the form on record, which may keep a tag or linker.
τA (τ131-τ95-τ55), wt (Saccharomyces cerevisiae), one chain, as listed by the source, chain 2 of 3: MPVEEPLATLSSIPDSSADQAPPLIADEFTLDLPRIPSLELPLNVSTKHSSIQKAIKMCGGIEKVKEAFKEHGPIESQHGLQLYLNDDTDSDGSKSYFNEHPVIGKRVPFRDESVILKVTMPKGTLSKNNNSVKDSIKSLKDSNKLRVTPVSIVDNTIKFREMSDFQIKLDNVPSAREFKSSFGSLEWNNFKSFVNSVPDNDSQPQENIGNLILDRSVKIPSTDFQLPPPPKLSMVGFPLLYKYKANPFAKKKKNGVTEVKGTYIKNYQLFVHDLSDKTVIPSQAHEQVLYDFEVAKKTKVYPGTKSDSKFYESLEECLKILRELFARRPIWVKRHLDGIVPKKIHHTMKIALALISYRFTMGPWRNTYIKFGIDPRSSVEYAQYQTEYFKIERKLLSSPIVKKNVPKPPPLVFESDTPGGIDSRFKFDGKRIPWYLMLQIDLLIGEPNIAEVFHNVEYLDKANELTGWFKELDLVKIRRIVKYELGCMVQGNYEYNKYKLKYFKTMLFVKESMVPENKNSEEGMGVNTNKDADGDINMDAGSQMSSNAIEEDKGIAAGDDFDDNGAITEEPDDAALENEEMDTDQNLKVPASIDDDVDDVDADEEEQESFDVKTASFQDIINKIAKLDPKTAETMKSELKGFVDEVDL
τA (τ131-τ95-τ55), wt (Saccharomyces cerevisiae), one chain, as listed by the source, chain 1 of 3: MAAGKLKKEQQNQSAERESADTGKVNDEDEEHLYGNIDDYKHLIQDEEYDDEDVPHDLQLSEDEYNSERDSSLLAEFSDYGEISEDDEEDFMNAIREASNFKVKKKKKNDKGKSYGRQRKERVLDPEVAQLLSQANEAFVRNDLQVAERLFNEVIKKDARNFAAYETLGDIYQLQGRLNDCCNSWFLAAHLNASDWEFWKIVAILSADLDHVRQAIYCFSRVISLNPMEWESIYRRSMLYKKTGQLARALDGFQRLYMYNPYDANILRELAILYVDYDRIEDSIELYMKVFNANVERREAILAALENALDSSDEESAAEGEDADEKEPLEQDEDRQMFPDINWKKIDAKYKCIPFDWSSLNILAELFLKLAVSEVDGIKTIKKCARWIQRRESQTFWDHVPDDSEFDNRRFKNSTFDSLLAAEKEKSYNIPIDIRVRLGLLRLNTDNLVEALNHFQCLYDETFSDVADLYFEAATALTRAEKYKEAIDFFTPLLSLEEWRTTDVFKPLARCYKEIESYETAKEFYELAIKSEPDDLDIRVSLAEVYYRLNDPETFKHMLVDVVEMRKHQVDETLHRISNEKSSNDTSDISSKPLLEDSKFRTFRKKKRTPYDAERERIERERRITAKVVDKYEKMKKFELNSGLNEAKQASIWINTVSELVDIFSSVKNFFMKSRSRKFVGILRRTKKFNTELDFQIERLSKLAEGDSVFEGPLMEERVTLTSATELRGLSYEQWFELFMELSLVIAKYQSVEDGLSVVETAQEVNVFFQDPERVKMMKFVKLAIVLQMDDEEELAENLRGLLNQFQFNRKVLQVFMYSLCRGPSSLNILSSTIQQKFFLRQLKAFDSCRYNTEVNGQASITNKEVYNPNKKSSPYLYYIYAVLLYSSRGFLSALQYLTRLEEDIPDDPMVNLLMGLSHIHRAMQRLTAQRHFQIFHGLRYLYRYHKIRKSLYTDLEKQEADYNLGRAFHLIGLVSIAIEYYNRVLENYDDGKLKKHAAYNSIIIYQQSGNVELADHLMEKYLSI
τA (τ131-τ95-τ55), wt (Saccharomyces cerevisiae), one chain, as listed by the source, chain 3 of 3: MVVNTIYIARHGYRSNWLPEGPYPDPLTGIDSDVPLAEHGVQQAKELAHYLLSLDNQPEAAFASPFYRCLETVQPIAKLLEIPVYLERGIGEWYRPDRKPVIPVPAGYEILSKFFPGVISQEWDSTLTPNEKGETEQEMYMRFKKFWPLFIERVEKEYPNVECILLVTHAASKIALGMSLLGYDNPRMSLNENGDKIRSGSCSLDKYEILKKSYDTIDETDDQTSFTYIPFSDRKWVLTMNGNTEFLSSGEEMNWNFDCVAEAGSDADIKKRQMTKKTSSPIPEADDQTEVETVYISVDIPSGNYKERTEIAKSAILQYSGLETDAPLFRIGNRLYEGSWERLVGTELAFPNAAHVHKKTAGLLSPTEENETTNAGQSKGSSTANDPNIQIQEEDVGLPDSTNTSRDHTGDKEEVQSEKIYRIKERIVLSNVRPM

Legend:
[1] = tested on: τA Δtail (τ95Δtail) (Saccharomyces cerevisiae); test: filter binding; details: similar results to EMSA, no saturation, probe not restated; recombinant protein; protein details: N-terminal TEV-cleavable His tag on τ95; label: 6FAM at 3' end of non-template strand
[2] = tested on: τA (τ131-τ95-τ55), wt (Saccharomyces cerevisiae); test: filter binding; details: similar results to EMSA, no saturation, probe not restated; recombinant protein; protein details: N-terminal TEV-cleavable His tag on τ95; label: 6FAM at 3' end of non-template strand
[3] = tested on: τA Δplug (τ95Δplug) (Saccharomyces cerevisiae); test: filter binding; details: similar results to EMSA, no saturation, probe not restated; recombinant protein; protein details: N-terminal TEV-cleavable His tag on τ95; label: 6FAM at 3' end of non-template strand
[4] = tested on: τA (τ131-τ95-τ55), wt (Saccharomyces cerevisiae); test: EMSA; details: just begins to shift at 10 uM protein, 1 uM DNA, affinity roughly micromolar; τA EMSA: 100 mM NaCl, 20 mM HEPES pH 7.5, 5 mM DTT, 1 h on ice, 10% glycerol added before loading; recombinant protein; protein details: N-terminal TEV-cleavable His tag on τ95; label: 6FAM at 3' end of non-template strand
[5] = tested on: holo-TFIIIC, wt (Saccharomyces cerevisiae); test: EMSA; details: 0.03-2.18 uM TFIIIC, 0.5 uM DNA; τA EMSA: 100 mM NaCl, 20 mM HEPES pH 7.5, 5 mM DTT, 1 h on ice, 10% glycerol added before loading; recombinant protein; label: 6FAM at 3' end of non-template strand

Sequence: CATCTTAGTATAGTGGTTAGT (double strand) [His_Abox]
- binding result [1]: binds
- binding result [2]: binds more weakly
- binding result [3]: binds
- binding result [4]: binds more weakly

Sequence: CATCTTAGTATAGTGGTTAGTACACATCGTTGTGGCCGATGAAACCCTGGTTCGATTCTAGG (double strand) [His_Abox_Bbox]
- binding result [5]: binds
